Literature values, collected in US20240255531A1, “MATURE ADRENOMEDULLIN FOR THERAPY STRATIFICATION OF CORTICOSTEROIDS IN CRITICALLY ILL PATIENTS” (priority 2021, published 2024).
For at least one compound, name, drawing or mass did not settle the structure.

What was measured:
[1] = tested on: COVID-19 patients receiving invasive mechanical ventilation or oxygen; details: vs usual care; cited from earlier work
[2] = tested on: patients with hypertension; details: cited from earlier work
[3] = relative to hydrocortisone; cited from earlier work
[4] = cited from earlier work

| Structure (SMILES) | 28-day mortality [1] | MR-proADM concentrations after treatment [2] | Potency relat. to hydrocortisone, Mineralcorticoid [3] | Equivalent glucocorticoid dose [4] | Potency relat. to hydrocortisone, Anti-inflammatory ([4]; relative to hydrocortisone) |
| --- | --- | --- | --- | --- | --- |
| C[C@@H]1C[C@H]2[C@@H]3CCC4=CC(=O)C=C[C@]4(C)[C@@]3(F)[C@@H](O)C[C@]2(C)[C@@]1(O)C(=O)CO [Dexamethasone] | mortality benefit | – | – | – | – |
| C[C@]12CCC(=O)C=C1CC[C@H]1[C@@H]3CC[C@](O)(C(=O)CO)[C@@]3(C)C[C@H](O)[C@@]12F [Fludrocortisone] | – | did not change significantly | 150 | 0 mg | 15 |
